These results are taken from paper PMC6650080, “A novel Ca2+-binding protein that can rapidly transduce auxin responses during root growth” (PLoS Biology, 2019).

Results are given in words; binding and its absence hold for the method and conditions named. Sequences can lack the tags named with a protein.

This assay deals with nonfused GST. Description: pull-down; GST-ICR1 (1.2 μg) or GST (0.4 μg) on Glutathione sepharose, His6-CMI1 0.5 μg; 20 mM Tris-HCl pH 7.5, 5 mM CaCl2, 0.1 mg/mL BSA, 200 mM NaCl, 1% Triton X-100, RT; wash with 1 M NaCl; blot with anti-poly-His; both purified.

B1: His6-CMI1 (natural protein, Arabidopsis, UniProt O81831 1-130, looked up)
chain: MASPKSPTRPTQQNPQPNFHDFLPTMAGNLGGEGLIGELCNGFELLMDREKGVITFESLRRNAAAVLGLGDLTDEDVRCMIKEGDFDCDGALNQMEFCVLMFRLSPDLMEASRCLVTEVIEEEFGFTRRH
notes: CMI1, Arabidopsis, At4g27280; also called His-CMI1; source: E. coli Rosetta (DE3), purified (Ni-NTA)
Consider B1, for which the binding entry is listed as “no binding”.
